This passage reports binding results from patent publication US20050196797A1.

By UniProt entry, the sequences of proteins in these tests, tags left out.
UniProt Q96Q15: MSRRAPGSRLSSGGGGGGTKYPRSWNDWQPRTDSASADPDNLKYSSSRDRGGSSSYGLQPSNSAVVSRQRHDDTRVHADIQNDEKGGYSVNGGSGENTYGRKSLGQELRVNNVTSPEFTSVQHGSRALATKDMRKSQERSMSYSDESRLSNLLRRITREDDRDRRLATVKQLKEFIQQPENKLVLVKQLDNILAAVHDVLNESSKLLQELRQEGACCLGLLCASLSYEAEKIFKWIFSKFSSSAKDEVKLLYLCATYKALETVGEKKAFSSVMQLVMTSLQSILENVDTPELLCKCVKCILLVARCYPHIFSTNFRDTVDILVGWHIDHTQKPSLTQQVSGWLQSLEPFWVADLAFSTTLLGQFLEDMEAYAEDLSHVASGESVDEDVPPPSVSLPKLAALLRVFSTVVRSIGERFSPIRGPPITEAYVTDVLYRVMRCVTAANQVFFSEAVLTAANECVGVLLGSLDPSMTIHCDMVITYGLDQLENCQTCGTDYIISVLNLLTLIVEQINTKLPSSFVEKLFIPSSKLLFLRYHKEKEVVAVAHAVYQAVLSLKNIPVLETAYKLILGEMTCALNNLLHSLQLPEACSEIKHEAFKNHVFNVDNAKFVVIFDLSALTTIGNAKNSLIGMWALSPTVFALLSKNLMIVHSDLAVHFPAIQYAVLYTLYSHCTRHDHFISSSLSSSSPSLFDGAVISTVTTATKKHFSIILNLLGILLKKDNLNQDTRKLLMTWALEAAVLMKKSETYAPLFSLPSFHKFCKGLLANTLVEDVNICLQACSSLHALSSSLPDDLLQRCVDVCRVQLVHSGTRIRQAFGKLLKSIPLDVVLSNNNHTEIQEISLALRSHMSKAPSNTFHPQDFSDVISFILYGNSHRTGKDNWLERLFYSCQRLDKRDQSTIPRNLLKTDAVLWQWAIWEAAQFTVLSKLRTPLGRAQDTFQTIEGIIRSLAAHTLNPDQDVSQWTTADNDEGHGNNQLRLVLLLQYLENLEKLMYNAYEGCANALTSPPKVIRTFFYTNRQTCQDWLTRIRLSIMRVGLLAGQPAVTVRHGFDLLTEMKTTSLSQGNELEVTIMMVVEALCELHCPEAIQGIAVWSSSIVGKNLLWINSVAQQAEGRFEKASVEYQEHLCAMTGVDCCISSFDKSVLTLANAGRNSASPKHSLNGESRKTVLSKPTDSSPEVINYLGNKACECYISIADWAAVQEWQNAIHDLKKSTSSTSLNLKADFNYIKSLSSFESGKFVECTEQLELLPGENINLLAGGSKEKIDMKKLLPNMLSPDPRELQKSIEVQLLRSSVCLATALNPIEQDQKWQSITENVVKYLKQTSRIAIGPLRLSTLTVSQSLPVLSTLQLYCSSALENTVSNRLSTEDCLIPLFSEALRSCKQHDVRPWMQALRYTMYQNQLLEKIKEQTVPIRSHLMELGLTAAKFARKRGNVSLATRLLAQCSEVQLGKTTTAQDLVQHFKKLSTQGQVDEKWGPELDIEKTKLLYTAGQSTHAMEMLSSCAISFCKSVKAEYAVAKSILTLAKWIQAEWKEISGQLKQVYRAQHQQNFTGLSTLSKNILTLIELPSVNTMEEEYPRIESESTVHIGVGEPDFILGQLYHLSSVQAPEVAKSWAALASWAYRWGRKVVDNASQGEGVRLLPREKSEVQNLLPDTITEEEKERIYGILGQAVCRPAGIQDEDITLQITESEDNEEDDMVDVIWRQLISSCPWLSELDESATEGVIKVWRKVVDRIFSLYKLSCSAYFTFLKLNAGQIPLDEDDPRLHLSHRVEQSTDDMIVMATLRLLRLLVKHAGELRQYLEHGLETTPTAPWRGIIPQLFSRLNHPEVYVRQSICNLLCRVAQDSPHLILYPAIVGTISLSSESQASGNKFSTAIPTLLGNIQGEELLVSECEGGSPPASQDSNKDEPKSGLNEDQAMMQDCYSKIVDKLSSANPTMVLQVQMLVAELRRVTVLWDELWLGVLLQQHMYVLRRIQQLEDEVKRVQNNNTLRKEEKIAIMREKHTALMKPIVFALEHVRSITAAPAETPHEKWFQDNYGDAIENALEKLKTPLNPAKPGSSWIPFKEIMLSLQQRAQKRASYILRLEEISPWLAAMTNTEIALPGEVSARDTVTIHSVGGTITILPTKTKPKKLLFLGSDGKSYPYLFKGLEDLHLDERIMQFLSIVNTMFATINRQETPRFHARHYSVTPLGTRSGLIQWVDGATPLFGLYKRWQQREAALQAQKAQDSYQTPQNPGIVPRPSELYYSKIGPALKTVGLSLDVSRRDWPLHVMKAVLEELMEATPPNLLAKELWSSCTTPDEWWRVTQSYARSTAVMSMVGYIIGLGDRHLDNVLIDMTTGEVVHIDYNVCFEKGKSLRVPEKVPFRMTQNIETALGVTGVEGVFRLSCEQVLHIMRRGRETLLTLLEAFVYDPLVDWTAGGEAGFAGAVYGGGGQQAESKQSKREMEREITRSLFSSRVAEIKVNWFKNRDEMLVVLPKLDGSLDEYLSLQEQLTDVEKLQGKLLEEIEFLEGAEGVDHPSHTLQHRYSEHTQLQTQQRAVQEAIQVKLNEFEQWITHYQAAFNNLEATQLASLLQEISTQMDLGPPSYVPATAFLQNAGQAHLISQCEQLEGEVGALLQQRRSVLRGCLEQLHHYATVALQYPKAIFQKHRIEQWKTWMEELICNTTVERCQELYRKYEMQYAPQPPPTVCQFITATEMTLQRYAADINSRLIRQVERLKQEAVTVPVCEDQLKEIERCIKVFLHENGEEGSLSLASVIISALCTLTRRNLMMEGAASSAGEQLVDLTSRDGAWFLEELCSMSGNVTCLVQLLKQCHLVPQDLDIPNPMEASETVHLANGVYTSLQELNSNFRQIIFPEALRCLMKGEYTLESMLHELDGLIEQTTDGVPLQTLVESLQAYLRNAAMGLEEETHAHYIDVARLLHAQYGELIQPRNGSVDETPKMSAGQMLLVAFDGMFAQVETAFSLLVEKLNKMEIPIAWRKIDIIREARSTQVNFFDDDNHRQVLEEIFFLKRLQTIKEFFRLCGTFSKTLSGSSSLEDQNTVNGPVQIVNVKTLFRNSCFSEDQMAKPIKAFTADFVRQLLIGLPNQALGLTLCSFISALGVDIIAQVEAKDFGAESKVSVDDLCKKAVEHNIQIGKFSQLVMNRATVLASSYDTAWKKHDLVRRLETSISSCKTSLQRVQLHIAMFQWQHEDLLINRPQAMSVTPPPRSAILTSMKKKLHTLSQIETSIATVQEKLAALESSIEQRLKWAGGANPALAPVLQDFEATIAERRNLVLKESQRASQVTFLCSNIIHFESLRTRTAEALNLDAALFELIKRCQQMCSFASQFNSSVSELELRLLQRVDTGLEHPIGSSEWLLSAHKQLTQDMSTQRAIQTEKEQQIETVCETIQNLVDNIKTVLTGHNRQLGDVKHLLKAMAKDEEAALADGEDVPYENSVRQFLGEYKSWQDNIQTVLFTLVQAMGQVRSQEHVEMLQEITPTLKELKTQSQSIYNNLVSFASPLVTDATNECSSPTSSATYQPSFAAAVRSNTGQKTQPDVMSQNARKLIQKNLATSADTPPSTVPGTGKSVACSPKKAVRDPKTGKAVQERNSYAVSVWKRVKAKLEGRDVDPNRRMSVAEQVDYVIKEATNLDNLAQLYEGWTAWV

This test addresses human SMG-1 (hSMG-1) (human) (UniProt Q96Q15). The test can be described thus: mass spectrometry (MALDI-TOF/MS of Lys-C fragments) of the 130 kDa band co-immunoprecipitated with antibody N.

Results are given in words; binding and its absence hold for the method and conditions named. Binding seen in cells or lysates may run through a third protein. These calls come from enrichment with a bait or labelling near it, and not all partners need be listed.

B1: SMGBP1 (SMG Binding Protein 1) (protein)
chain: MAGPVSLRDLLMGASAWMGSESPGGSPTEGGGSAAGGPEPPWREDEICVVGIFGKTALRLNSEKFSLVNTVCDRQVFPLFRHQDPGDPGPGIRTEAGAVGEAGGAEDPGAAAGGSVRGSGAVAEGNRTEAGSQDYSLLQAYYSQESKVLYLLLTSICDNSQLLRACRALQSGEAGGGLSLPHAEAHEFWKHQEKLQCLSLLYLFSVCHILLLVHPTCSFDITYDRVFRALDGLRQKVLPLLKTAIKDCPVGKDWKLNCRPCPPRLLFLFQLNGALKVVPPRNQDPAHPDKPKKHSPKRRLQHALEDQIYRIFRKSRVLTNQSINCLFTVPANQAFVYIVPGSQEEDPVGMLLDQLRSHCTVKDPESLLVPAPLSGPRRYQVMRQHSRQQLSFHIDSSSSSSSGQLVDFTLWEFLWQHVELVLSKKGFDDSVGRNPQPSHFELPTYQKWISAASKLYEVAIDGKEEDLGSPTGELTSKILSSIKVLEGFLDIDTKFSENRCQKALPMAHSAYQSNLPHNYTMTVHKNQLAQALRVYSQHARGPAFHKYAMQLHEDCYKFWSNGHQLCEERSLTDQHCVHKFHSLPKSGEKPEADRNPPVLYHNSRARSTGACNCGRKQAPRDDPFDIKAANYDFYQLLEEKCCGKLDHINFPVFEPSTPDPAPAKNESSPAPPDSDADKLKEKEPQTQGESTSLSLALSLGQSTDSLGTYPADPQAGGDNPEVHGQVEVKTEKRPNFVDRQASTVEYLPGMLHSNCPKGLLPKFSSWSLVKLGPAKSYNFHTGLDQQGFIPGTNYLMPWDIVIRTRAEDEGDLDTNSWPAPNKAIPGKRSAVVMGRGRRRDDIARAFVGFEYEDSRGRRFMCSGPDKVMKVMGSGPKESALKALNSDMPLYILSSSQGRGLKPHYAQLMRLFVVVPDAPLQIILMPQVQPGPPPCPVFYPEKQEITLPPDGLWVLRFPYAYVTERGPCFPPKENVQLMSYKVLRGVLKAVTQ
As for B1, the binding entry is reported as “binds”.
